According to PubChem BioAssay AID256 (DTP/NCI, 2004):
The list does not hold the whole screen: it gathers tests that were run many times, whatever their T/C, doses with no T/C, and many T/C values between a quarter and a half above the control. Further doses and runs are listed elsewhere. T/C gives the treated animals as a percentage of the vehicle group. Some entries give survivors of the animals treated and no T/C: the source files T/C as zero there, which appears to mark a toxic dose or a test without result, not a measured value. Some doses without a T/C left all or most animals alive at the check, yet need not have been tolerated: the source hardly ever lists a survival T/C far under the control, and the zero likely stands for such cases as well. Survivors were counted at the toxicity check, usually on the fifth day, unless a day is given; later deaths do not show. Schedules are NCI's codes, read here as Q, the interval in days (D) or hours (H), X, the number of doses. For survival time, this PubChem deposit counts one and a half times the control or more as active, and values a quarter to a half above the control carry no call in these data; other NCI protocols may use other cut-offs. Some T/C values carry the count of animals alive at the toxicity check (mostly the fifth day); without a count, all were alive then.

Tested on: CD2F1 mice, L1210 leukemia ip, survival T/C
Assay: NCI In Vivo Anticancer Drug Screen. Data for tumor model L1210 Leukemia (intraperitoneal) in CD2F1 (CDF1) mice
Conditions: higher T/C = longer survival
In short: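 Ratio T/C, where T is the treated-group value and C the vehicle-dosed control value, from mice implanted with a transplantable tumor.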

[1] = T/C endpoint: mean survival time, dose: 400.0 mg/kg/injection, schedule: Q01DX001 (ip), vehicle: saline
[2] = T/C endpoint: mean survival time, dose: 200.0 mg/kg/injection, schedule: Q04DX003 (ip), vehicle: saline with Tween-80
[3] = T/C endpoint: mean survival time, dose: 400.0 mg/kg/injection, schedule: Q04DX003 (ip), vehicle: saline with Tween-80
[4] = T/C endpoint: mean survival time, dose: 100.0 mg/kg/injection, schedule: Q01DX009 (ip), vehicle: Klucel (hydroxypropylcellulose) (HPC)
[5] = T/C endpoint: mean survival time, dose: 200.0 mg/kg/injection, schedule: Q01DX009 (ip), vehicle: Klucel (hydroxypropylcellulose) (HPC)
[6] = T/C endpoint: mean survival time, dose: 200.0 mg/kg/injection, schedule: Q01DX001 (ip), vehicle: saline
[7] = T/C endpoint: mean survival time, dose: 200.0 mg/kg/injection, schedule: Q01DX009 (ip), vehicle: saline
[8] = T/C endpoint: mean survival time, dose: 200.0 mg/kg/injection, schedule: Q01DX009 (ip), vehicle: water

Compound: CC[N-]c1nncs1.CC[N-]c1nncs1.CC[N-]c1nncs1.CC[N-]c1nncs1.[Cl][Rh][Cl]
- survivor count (T/C endpoint: mean survival time, dose: 100.0 mg/kg/injection, schedule: Q04DX003 (ip), vehicle: distilled water + Tween-80): 2 of 6
- survivor count (T/C endpoint: mean survival time, dose: 200.0 mg/kg/injection, schedule: Q04DX003 (ip), vehicle: distilled water + Tween-80): 0 of 6

Compound: NC(=O)C1=C(CCCCl)c2ccccc2C1=O
- survivor count [1]: 0 of 6

Compound: O=[As](O)(CC(O)COc1ccc(Cl)cc1Cl)c1cccc(Cl)c1 (centres undefined)
- survivor count (T/C endpoint: mean survival time, dose: 25.0 mg/kg/injection, schedule: Q04DX003 (ip), vehicle: saline with Tween-80): 0 of 6

Compound: Cc1nc2c(O)cccn2c(=O)c1Cl
- survivor count [2]: 6 of 6
- survivor count [3]: 4 of 6

Compound: CC1(C)N=C(N)N=C(N)N1c1ccc(OCCCc2ccccc2)c(N)c1
- survivor count (T/C endpoint: mean survival time, dose: 100.0 mg/kg/injection, schedule: Q04DX003 (ip), vehicle: saline with Tween-80): 5 of 6
- survivor count [2]: 0 of 6
- survivor count [3]: 0 of 6

Compound: CC(=O)OCC1OC([S][Sb]([CH3])[CH3])C(OC(C)=O)C(OC(C)=O)C1OC(C)=O (centres undefined)
- survivor count [4]: 0 of 3
- survivor count [5]: 0 of 3

Compound: CN(CC1CCCC1)C1CCCCC1
- survivor count [6]: 1 of 6
- survivor count [1]: 0 of 6

Compound: OCCN=Cc1ccccc1
- survivor count [2]: 4 of 6
- survivor count [3]: 1 of 6

Compound: C1CCC(CCC2CCCC[N-]2)[N-]C1.C1CCC(CCC2CCCC[N-]2)[N-]C1.[Ni+2].[O-][Cl+3]([O-])([O-])O (centres undefined)
- survivor count (T/C endpoint: mean survival time, dose: 25.0 mg/kg/injection, schedule: Q01DX001 (ip), vehicle: saline with Tween-80): 3 of 3
- T/C (T/C endpoint: mean survival time, dose: 50.0 mg/kg/injection, schedule: Q01DX001 (ip), vehicle: saline with Tween-80): 139 % of control
- T/C (T/C endpoint: mean survival time, dose: 50.0 mg/kg/injection, schedule: Q01DX001 (ip), vehicle: saline): 131 % of control [2 of 3 alive]
- survivor count [6]: 0 of 3
- survivor count [1]: 0 of 3

Compound: CNc1nc(N(C)C)nc(N(C)C)n1
- survivor count [7]: 6 of 6
- survivor count [8]: 6 of 6

Compound: Nc1nc2c(C(=O)N3CCCC3)nnn2c2ccccc12
- survivor count (T/C endpoint: median survival time, dose: 200.0 mg/kg/injection, schedule: Q01DX009 (ip), vehicle: saline with Tween-80): 0 of 10

Compound: Cc1cc(N(C)CCCl)ccc1N=Nc1ccccc1C(=O)O
- survivor count (T/C endpoint: mean survival time, dose: 50.0 mg/kg/injection, schedule: Q01DX009 (ip), vehicle: Klucel (hydroxypropylcellulose) (HPC)): 0 of 3
- survivor count [4]: 0 of 3
- survivor count [5]: 0 of 3

Compound: CC1CC(C)(C)N=C(CCCCCCl)O1 (centres undefined)
- survivor count (T/C endpoint: mean survival time, dose: 400.0 mg/kg/injection, schedule: Q01DX001 (ip), vehicle: saline with Tween-80): 0 of 6

Compound: NC(=O)CCC(N)C(=O)O.[Cl-].[Cl-].[Cl-].[Cl-].[Pt+2] (centres undefined)
- survivor count (T/C endpoint: mean survival time, dose: 50.0 mg/kg/injection, schedule: Q01DX009 (ip), vehicle: water): 4 of 6
- survivor count (T/C endpoint: mean survival time, dose: 100.0 mg/kg/injection, schedule: Q01DX009 (ip), vehicle: water): 1 of 6
- survivor count (T/C endpoint: mean survival time, dose: 100.0 mg/kg/injection, schedule: Q04DX003 (ip), vehicle: saline): 0 of 6
- survivor count [8]: 1 of 6
- survivor count (T/C endpoint: mean survival time, dose: 200.0 mg/kg/injection, schedule: Q04DX003 (ip), vehicle: saline): 0 of 6
- survivor count (T/C endpoint: mean survival time, dose: 400.0 mg/kg/injection, schedule: Q04DX003 (ip), vehicle: saline): 0 of 6

Compound: COC(=O)c1cccnc1C(=O)O
- survivor count (T/C endpoint: mean survival time, dose: 100.0 mg/kg/injection, schedule: Q01DX009 (ip), vehicle: saline): 5 of 6
- survivor count [7]: 3 of 6
- survivor count (T/C endpoint: mean survival time, dose: 400.0 mg/kg/injection, schedule: Q01DX009 (ip), vehicle: saline): 2 of 6

Compound: COCC1OC2OC3C(COC)OC(OC4C(COC)OC(OC5C(COC)OC(OC6C(COC)OC(OC7C(COC)OC(OC8C(COC)OC(OC1C(O)C2O)C(O)C8O)C(O)C7O)C(O)C6O)C(O)C5O)C(O)C4O)C(O)C3O (centres undefined) (tested in a mixture with another compound)
- survivor count (T/C endpoint: mean survival time, dose: 800.0 mg/kg/injection, schedule: Q01DX009 (ip), vehicle: Klucel (hydroxypropylcellulose) (HPC)): 2 of 6

Compound: C=CC1(C)CCN=C(CCN2CCCCC2)O1 (centres undefined)
- survivor count (T/C endpoint: mean survival time, dose: 400.0 mg/kg/injection, schedule: Q01DX001 (ip), vehicle: saline sonified): 0 of 6

Compound: C[PH+](C)C.C[PH+](C)C.[Au]
- survivor count (T/C endpoint: median survival time, dose: 20.0 mg/kg/injection, schedule: Q01DX009 (ip), vehicle: saline): 5 of 10
